# Counter-ions that a name gives are not always drawn. At least one structure is not confirmed: it was looked up by name or label, or the drawing left a doubt.
# Tested on: porphyrin levels
# Experiment: Porphyrin levels in facial skin by in vivo fluorescence spectroscopy (Phase II study, MAL-PDT)
# Parameters: species or system human
# Settings: MAL 160 mg/g for 3 hours and 80 mg/g for 1.5 hours
structure (smiles),measurement,value
"COC(=O)CCC(=O)CN [MAL, methylaminolevulinate hydrochloride]",Porphyrin levels after red light exposure,went back to baseline levels

# — patent US10543272B2, “Use of aminolevulinic acid and derivatives thereof” (Photocure ASA, priority 2007, dated 2020)
